Test results from paper PMC5645319 (Scientific Reports, 2017).

Experiments:
[1] = general procedure: Fmoc solid-phase peptide synthesis; Rink Amide MBHA; PyBOP/DIPEA; settings: whole synthesis
[2] = general procedure: Fmoc solid-phase peptide synthesis; Rink Amide MBHA resin; PyBOP/DIPEA; settings: conjugation step

With “Dota-Lys(EtNBS)-Lys(NH2)-β-Ala-Lys(N3)NH2” the isolated yield [1] was 14.5%.
With “DOTA-Lys(EtNBS)-Lys(PEG-5KDa)-β-Ala-Lys(DBCO-PEG4-cRGD)” the conjugation yield ([2]; cyclic, sequence written open) was 50%.
In the case of “DOTA-Lys(EtTNBS)-Lys(NH2)-β-Ala-Lys(DBCO-PEG4-cRGD)-NH2”, the conjugation yield [2] is reported as about 99%.
